Drawing on PMC8312610, “F4, a collagen XIX-derived peptide, inhibits tumor angiogenesis through αvβ3 and α5β1 integrin interaction” (Cell Adhesion & Migration, 2021), this text covers binding for two substances.

No constants are given. Whether binding was seen depends on the method and setting. Binding seen in cells or lysates may run through a third protein. Binding can be weak; no strength is given.

The target in this test is T1, F4 peptide (…) from collagen XIX.
T1 sequence (peptide): CNPEDCLYPVSHAHQR
In words: pull-down; affinity chromatography: F4 peptide (reduced with 50 mM DTT) coupled to HiTrap NHS-activated Sepharose; HUVEC protein extracts loaded at +4°C; wash 10 mM Tris, 1 mM CaCl2, 1 mM MgCl2, pH 7.6, 0.1% octylglucoside; elution with 0.15, 0.6 and 1 M NaCl; western blot with anti-integrin subunit antibodies; only the target purified.

Take “α5β1 integrin of HUVEC (human (endogenous in HUVEC)) (receptor)”: the binding entry was “binds”.

Consider “αvβ3 integrin of HUVEC (human (endogenous in HUVEC)) (receptor)”, for which the binding result is given as “binds”.
